{"sequences": {"note": "Amino acid sequences for entries named in this document (tags omitted). A change or cut given only in a name is not applied to a line headed by its entry.", "UniProt Q8NFQ8": "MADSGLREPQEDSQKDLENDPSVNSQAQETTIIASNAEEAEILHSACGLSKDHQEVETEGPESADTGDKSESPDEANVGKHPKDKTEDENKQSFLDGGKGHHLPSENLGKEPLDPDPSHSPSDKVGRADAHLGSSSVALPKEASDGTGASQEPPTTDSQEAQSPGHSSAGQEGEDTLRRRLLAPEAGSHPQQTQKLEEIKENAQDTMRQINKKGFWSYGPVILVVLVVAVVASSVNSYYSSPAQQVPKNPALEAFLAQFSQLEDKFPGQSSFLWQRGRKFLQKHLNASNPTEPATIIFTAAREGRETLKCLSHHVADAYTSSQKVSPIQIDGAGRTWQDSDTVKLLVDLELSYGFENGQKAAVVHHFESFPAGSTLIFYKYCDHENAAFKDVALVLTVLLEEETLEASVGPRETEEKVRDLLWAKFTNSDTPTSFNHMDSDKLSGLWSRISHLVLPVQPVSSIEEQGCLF", "UniProt Q9P0U1": "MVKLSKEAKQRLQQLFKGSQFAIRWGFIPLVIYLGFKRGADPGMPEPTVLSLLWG", "UniProt Q13263": "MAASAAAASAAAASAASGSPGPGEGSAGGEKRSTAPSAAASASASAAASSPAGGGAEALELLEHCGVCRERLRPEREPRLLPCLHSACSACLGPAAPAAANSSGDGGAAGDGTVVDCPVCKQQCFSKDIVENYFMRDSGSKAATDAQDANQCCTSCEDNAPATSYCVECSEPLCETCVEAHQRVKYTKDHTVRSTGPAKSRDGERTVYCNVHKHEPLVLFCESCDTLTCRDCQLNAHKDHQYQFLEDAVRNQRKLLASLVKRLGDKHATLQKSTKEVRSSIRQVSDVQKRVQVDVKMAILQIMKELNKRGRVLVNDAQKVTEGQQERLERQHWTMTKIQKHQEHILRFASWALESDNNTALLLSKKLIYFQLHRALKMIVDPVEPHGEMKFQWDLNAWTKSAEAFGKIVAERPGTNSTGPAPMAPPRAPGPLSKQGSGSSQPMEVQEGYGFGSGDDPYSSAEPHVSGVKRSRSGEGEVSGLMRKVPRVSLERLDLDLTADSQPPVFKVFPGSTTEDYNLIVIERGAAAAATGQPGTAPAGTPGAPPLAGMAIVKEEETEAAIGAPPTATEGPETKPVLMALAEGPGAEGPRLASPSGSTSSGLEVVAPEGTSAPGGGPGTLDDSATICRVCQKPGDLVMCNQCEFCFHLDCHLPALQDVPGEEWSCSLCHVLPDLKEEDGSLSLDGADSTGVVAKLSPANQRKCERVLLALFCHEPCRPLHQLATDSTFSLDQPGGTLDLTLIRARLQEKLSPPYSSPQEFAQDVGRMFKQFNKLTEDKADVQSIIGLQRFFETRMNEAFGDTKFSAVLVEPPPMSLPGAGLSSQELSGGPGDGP", "UniProt Q9C037": "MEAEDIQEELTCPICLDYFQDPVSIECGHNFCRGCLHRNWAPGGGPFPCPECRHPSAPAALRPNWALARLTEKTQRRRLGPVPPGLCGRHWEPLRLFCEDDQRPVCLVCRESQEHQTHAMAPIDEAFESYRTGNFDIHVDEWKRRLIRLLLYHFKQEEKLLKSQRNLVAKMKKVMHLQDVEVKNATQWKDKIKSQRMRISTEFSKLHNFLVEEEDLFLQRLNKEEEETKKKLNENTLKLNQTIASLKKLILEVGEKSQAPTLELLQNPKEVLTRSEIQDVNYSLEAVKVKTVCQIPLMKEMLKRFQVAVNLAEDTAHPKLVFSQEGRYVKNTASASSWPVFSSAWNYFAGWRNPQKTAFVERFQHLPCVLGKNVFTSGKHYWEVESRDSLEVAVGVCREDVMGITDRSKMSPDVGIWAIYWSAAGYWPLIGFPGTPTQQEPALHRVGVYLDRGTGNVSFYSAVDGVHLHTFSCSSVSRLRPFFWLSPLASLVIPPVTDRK", "UniProt Q15035": "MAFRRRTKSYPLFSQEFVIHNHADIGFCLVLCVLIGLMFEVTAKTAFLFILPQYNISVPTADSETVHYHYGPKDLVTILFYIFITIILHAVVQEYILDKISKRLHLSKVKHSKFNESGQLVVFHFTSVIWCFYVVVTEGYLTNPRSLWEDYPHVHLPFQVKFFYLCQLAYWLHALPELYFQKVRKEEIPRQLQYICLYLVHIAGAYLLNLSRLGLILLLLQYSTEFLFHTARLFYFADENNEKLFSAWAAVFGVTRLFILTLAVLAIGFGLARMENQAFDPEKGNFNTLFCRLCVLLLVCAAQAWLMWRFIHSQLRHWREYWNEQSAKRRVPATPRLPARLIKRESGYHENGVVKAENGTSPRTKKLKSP", "UniProt O00635": "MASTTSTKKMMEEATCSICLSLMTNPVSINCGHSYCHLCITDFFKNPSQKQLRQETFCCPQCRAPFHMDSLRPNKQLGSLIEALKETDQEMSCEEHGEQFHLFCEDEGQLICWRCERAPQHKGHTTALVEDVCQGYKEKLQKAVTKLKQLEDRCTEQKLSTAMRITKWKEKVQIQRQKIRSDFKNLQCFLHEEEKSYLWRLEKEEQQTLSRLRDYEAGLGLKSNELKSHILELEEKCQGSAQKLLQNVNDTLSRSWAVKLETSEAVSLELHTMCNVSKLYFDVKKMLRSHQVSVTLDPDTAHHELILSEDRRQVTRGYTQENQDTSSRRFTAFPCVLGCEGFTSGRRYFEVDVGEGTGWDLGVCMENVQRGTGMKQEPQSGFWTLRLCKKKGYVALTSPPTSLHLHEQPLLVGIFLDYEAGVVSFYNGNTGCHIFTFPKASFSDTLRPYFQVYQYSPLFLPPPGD", "UniProt Q9BQ61": "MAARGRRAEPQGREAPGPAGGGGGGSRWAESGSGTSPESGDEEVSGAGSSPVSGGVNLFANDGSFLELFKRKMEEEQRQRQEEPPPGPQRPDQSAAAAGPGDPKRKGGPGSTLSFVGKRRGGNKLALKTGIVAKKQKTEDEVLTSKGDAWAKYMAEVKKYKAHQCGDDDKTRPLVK", "UniProt Q92574": "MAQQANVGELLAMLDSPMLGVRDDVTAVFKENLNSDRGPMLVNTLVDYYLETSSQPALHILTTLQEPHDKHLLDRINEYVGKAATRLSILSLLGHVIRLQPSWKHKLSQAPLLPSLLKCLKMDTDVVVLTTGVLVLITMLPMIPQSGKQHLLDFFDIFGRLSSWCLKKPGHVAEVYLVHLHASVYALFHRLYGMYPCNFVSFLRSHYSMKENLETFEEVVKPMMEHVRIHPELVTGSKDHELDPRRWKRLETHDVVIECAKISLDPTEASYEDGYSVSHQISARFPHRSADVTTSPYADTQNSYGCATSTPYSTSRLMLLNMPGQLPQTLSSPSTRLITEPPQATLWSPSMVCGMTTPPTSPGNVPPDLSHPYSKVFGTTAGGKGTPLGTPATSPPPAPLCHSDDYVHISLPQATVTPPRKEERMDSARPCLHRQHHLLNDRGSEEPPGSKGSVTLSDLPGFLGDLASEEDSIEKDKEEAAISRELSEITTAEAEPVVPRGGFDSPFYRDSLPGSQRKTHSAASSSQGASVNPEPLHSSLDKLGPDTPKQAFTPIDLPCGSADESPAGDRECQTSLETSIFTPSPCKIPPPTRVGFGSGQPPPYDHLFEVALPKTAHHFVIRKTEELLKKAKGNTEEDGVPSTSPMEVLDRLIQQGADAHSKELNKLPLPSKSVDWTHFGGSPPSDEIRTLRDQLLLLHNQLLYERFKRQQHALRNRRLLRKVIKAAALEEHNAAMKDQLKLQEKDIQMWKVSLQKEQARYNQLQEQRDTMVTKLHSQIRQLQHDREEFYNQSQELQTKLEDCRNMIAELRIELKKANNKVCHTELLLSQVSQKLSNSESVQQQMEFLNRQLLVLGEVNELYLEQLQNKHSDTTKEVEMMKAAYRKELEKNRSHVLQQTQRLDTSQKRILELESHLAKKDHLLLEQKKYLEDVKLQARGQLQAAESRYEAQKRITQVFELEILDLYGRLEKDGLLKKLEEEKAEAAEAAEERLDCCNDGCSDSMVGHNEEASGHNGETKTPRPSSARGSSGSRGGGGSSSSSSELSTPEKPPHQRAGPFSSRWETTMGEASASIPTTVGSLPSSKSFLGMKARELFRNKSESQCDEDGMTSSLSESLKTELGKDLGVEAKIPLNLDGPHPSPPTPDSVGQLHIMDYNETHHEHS", "UniProt Q9C035": "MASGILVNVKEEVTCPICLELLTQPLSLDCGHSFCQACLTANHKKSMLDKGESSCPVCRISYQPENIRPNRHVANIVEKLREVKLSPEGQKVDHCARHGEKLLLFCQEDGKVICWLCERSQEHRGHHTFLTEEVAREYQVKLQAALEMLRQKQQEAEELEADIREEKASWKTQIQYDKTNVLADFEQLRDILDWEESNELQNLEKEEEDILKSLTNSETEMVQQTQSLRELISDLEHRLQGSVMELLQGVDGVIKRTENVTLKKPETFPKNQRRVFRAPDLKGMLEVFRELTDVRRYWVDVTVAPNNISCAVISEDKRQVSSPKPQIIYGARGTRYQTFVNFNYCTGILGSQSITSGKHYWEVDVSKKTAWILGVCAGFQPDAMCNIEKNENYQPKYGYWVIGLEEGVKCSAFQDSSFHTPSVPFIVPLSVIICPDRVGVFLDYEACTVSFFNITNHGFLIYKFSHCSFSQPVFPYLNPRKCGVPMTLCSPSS", "UniProt P28908": "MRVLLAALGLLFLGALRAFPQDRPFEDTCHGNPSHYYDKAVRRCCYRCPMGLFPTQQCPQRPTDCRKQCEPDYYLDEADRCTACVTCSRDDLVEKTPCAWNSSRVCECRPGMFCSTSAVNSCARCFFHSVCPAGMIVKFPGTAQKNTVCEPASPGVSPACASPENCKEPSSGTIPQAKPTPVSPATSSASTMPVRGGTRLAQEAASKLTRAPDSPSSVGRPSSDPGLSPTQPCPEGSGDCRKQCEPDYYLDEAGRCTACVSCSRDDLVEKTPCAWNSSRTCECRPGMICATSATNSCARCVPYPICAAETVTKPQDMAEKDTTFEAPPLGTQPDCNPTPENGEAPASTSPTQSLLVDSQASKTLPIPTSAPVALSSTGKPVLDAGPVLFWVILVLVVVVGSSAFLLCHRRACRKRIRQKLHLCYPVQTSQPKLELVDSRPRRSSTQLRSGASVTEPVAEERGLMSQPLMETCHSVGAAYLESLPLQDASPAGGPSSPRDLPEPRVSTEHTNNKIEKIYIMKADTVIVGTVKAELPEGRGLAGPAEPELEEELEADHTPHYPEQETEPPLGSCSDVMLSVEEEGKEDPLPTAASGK", "UniProt Q8N4H5": "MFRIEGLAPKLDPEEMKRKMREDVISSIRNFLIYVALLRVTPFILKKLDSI", "UniProt Q13595": "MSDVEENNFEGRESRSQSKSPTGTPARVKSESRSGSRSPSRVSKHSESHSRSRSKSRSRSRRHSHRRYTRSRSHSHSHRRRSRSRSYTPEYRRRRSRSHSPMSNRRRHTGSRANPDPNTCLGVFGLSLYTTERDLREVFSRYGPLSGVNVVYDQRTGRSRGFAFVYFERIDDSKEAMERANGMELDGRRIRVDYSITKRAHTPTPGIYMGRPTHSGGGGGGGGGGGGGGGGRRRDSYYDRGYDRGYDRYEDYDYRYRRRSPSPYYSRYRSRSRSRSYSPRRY", "UniProt O60784, whole entry, looked up": "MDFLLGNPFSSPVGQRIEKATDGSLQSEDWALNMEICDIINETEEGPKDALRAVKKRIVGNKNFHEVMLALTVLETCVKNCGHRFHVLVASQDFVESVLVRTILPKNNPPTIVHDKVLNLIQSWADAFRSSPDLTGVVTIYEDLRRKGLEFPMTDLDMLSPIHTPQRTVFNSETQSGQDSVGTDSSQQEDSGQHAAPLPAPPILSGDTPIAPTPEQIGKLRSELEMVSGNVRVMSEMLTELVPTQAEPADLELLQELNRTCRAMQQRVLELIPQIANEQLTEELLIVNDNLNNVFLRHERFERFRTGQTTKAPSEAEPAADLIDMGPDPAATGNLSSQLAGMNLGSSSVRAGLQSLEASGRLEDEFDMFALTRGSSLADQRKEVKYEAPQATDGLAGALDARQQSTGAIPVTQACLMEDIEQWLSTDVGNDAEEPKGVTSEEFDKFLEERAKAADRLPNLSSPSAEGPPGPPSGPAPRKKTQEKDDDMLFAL", "UniProt Q15025": "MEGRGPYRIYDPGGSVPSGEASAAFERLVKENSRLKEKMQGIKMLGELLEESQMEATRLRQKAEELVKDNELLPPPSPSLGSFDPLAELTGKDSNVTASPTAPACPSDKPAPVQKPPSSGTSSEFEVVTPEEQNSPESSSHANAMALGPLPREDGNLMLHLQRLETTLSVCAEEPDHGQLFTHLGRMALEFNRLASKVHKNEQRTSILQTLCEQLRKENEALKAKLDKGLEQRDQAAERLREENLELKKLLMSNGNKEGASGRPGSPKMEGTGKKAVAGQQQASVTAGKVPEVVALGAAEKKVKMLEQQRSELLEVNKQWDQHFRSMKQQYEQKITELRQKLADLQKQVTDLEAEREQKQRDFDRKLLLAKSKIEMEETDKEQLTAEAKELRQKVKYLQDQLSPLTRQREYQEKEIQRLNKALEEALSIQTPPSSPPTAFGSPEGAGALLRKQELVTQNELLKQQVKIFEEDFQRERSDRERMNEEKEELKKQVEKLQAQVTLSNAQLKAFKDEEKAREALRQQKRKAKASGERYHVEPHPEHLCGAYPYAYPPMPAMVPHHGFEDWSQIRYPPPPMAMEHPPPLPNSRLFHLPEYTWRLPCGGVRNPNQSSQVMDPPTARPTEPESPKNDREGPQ"}, "source": "the supplement of paper PMC10849652", "note": "The list shows a part of the results.", "data": [{"compound": "CC1=C2C(=CC=C1)N=C(N(C2=O)C3=CC=CC=C3C)CN4C=NC5=C(N=CN=C54)N", "experiment": "log2 fold change, soluble protein after heating vs DMSO (PISA); higher = thermal stabilisation; K562 cells, 10 uM, 30 min; active = over 0.2 and 3.5 SD of the protein, either way, in both replicates (recomputed)", "procedure,_shortened": "(§1)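 K562 cells at 2×10^6 cells/mL were treated with 10 μM compound for 30 min. Aliquots were heated for 3 min across 48°C-58°C, pooled, and extracted in PBS with 0.5% NP-40 at 4°C; soluble protein was the supernatant after 21,000xg for 90 min. Soluble protein was quantified by TMTpro 16plex LC-MS/MS with channel sums equalised, and reported as log2 fold change in thermal stability against DMSO controls, with values from duplicates.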", "values": [{"target": "TOR1AIP2 (UniProt Q8NFQ8)", "log2 fold change": "inactive: -0.009"}, {"target": "TOMM7 (UniProt Q9P0U1)", "log2 fold change": "inactive: 0.08"}, {"target": "TRIM28 (UniProt Q13263)", "log2 fold change": "inactive: 0.017"}, {"target": "TRIP11 (UniProt Q15643)", "log2 fold change": "inactive: -0.001"}, {"target": "TRIM65 (UniProt Q6PJ69)", "log2 fold change": "inactive: 0.109"}, {"target": "TRMT5 (UniProt Q32P41)", "log2 fold change": "inactive: 0.16"}, {"target": "TRIM4 (UniProt Q9C037)", "log2 fold change": "inactive: 0.254"}, {"target": "TRAM2 (UniProt Q15035)", "log2 fold change": "inactive: 0.128"}, {"target": "TRIM24 (UniProt O15164)", "log2 fold change": "inactive: 0.074"}, {"target": "TRIM41 (UniProt Q8WV44)", "log2 fold change": "inactive: -0.005"}, {"target": "TOM1L2 (UniProt Q6ZVM7)", "log2 fold change": "inactive: 0.101"}, {"target": "TRIP12 isoform 3 (UniProt Q14669)", "log2 fold change": "inactive: 0.056"}, {"target": "TRIM38 (UniProt O00635)", "log2 fold change": "inactive: 0.201"}, {"target": "TRPC4AP (UniProt Q8TEL6)", "log2 fold change": "inactive: 0.079"}, {"target": "TRIR (UniProt Q9BQ61)", "log2 fold change": "inactive: -0.049"}, {"target": "TRAF3 (UniProt Q13114)", "log2 fold change": "inactive: 0.158"}, {"target": "TPRA1 (UniProt Q86W33)", "log2 fold change": "inactive: 0.039"}, {"target": "TSC1 (UniProt Q92574)", "log2 fold change": "inactive: 0.152"}, {"target": "TRIM5 (UniProt Q9C035)", "log2 fold change": "inactive: 0.023"}, {"target": "TRADD (UniProt Q15628)", "log2 fold change": "inactive: 0.143"}, {"target": "TNFRSF8 (UniProt P28908)", "log2 fold change": "inactive: 0.036"}, {"target": "TRAF7 (UniProt Q6Q0C0)", "log2 fold change": "inactive: 0.296"}, {"target": "TRAF3IP1 (UniProt Q8TDR0)", "log2 fold change": "inactive: -0.147"}, {"target": "TOMM5 isoform 2 (UniProt Q8N4H5)", "log2 fold change": "inactive: -0.032"}, {"target": "TPD52L2 isoform 3 (UniProt O43399)", "log2 fold change": "inactive: -0.035"}]}, {"compound": "Cc1sc2c(c1C)C(c1ccc(Cl)cc1)=N[C@@H](CC(=O)OC(C)(C)C)c1nnc(C)n1-2", "experiment": "log2 fold change, soluble protein after heating vs DMSO (PISA); higher = thermal stabilisation; K562 cells, 10 uM, 30 min; active = over 0.2 and 3.5 SD of the protein, either way, in both replicates (recomputed)", "procedure,_shortened": "as §1", "values": [{"target": "TOR1AIP2 (UniProt Q8NFQ8)", "log2 fold change": "inactive: -0.005"}, {"target": "TOMM7 (UniProt Q9P0U1)", "log2 fold change": "inactive: -0.046"}, {"target": "TRIM56 (UniProt Q9BRZ2)", "log2 fold change": "inactive: 0.208"}, {"target": "TRIM28 (UniProt Q13263)", "log2 fold change": "inactive: -0.012"}, {"target": "TRIP11 (UniProt Q15643)", "log2 fold change": "inactive: 0.112"}, {"target": "TSC2 (UniProt P49815)", "log2 fold change": "inactive: -0.044"}, {"target": "TRMT5 (UniProt Q32P41)", "log2 fold change": "inactive: -0.092"}, {"target": "TRIM4 (UniProt Q9C037)", "log2 fold change": "inactive: -0.04"}, {"target": "TRAM2 (UniProt Q15035)", "log2 fold change": "inactive: -0.009"}, {"target": "TRIM24 (UniProt O15164)", "log2 fold change": "inactive: 0.024"}, {"target": "TRIP12 isoform 3 (UniProt Q14669)", "log2 fold change": "inactive: 0.106"}, {"target": "TPRG1L (UniProt Q5T0D9)", "log2 fold change": "inactive: -0.174"}, {"target": "TRIO (UniProt O75962)", "log2 fold change": "inactive: -0.119"}, {"target": "TRPC4AP (UniProt Q8TEL6)", "log2 fold change": "inactive: 0.031"}, {"target": "TRIR (UniProt Q9BQ61)", "log2 fold change": "inactive: -0.006"}, {"target": "TRIQK (UniProt Q629K1)", "log2 fold change": "inactive: -0.052"}, {"target": "TRIM21 (UniProt P19474)", "log2 fold change": "inactive: -0.019"}, {"target": "TSC1 (UniProt Q92574)", "log2 fold change": "inactive: -0.04"}, {"target": "TRIM5 (UniProt Q9C035)", "log2 fold change": "inactive: 0.155"}, {"target": "TRA2A (UniProt Q13595)", "log2 fold change": "inactive: 0.087"}, {"target": "TNFRSF8 (UniProt P28908)", "log2 fold change": "inactive: -0.04"}, {"target": "TOM1 (UniProt O60784)", "log2 fold change": "inactive: 0.039"}, {"target": "TNRC6B (UniProt Q9UPQ9)", "log2 fold change": "inactive: 0.013"}, {"target": "TOMM5 isoform 2 (UniProt Q8N4H5)", "log2 fold change": "inactive: -0.029"}, {"target": "TPD52L2 isoform 3 (UniProt O43399)", "log2 fold change": "inactive: -0.031"}, {"target": "TNIP1 (UniProt Q15025)", "log2 fold change": "inactive: 0.009"}]}, {"compound": "c1ccc([C@@H]2C[C@H]2NC2CCNCC2)cc1", "experiment": "log2 fold change, soluble protein after heating vs DMSO (PISA); higher = thermal stabilisation; K562 cells, 10 uM, 30 min; active = over 0.2 and 3.5 SD of the protein, either way, in both replicates (recomputed)", "procedure,_shortened": "as §1", "values": [{"target": "TOR1AIP2 (UniProt Q8NFQ8)", "log2 fold change": "inactive: -0.024"}, {"target": "TRIM56 (UniProt Q9BRZ2)", "log2 fold change": "inactive: 0.081"}, {"target": "TRPS1 isoform 2 (UniProt Q9UHF7)", "log2 fold change": "inactive: -0.226"}, {"target": "TRIM28 (UniProt Q13263)", "log2 fold change": "inactive: 0.009"}, {"target": "TRIM65 (UniProt Q6PJ69)", "log2 fold change": "inactive: -0.041"}, {"target": "TSC2 (UniProt P49815)", "log2 fold change": "inactive: 0.317"}, {"target": "TRIM4 (UniProt Q9C037)", "log2 fold change": "inactive: -0.038"}, {"target": "TRAM2 (UniProt Q15035)", "log2 fold change": "inactive: -0.106"}, {"target": "TRIT1 (UniProt Q9H3H1)", "log2 fold change": "inactive: 0.058"}, {"target": "TOM1L2 (UniProt Q6ZVM7)", "log2 fold change": "inactive: -0.001"}, {"target": "TRAPPC6A isoform 2 (UniProt O75865)", "log2 fold change": "inactive: 0.063"}, {"target": "TRIM38 (UniProt O00635)", "log2 fold change": "inactive: 0.065"}, {"target": "TRIR (UniProt Q9BQ61)", "log2 fold change": "inactive: -0.012"}, {"target": "TRIQK (UniProt Q629K1)", "log2 fold change": "inactive: 0.048"}, {"target": "TRIM21 (UniProt P19474)", "log2 fold change": "inactive: -0.241"}, {"target": "TSC1 (UniProt Q92574)", "log2 fold change": "inactive: -0.021"}, {"target": "TRIM5 (UniProt Q9C035)", "log2 fold change": "inactive: -0.004"}, {"target": "TNFRSF8 (UniProt P28908)", "log2 fold change": "inactive: 0.021"}, {"target": "TRAF7 (UniProt Q6Q0C0)", "log2 fold change": "inactive: -0.082"}, {"target": "TNRC6B (UniProt Q9UPQ9)", "log2 fold change": "inactive: 0.013"}, {"target": "TRAF3IP1 (UniProt Q8TDR0)", "log2 fold change": "inactive: -0.078"}, {"target": "TOR1AIP1 (UniProt Q5JTV8)", "log2 fold change": "inactive: -0.044"}, {"target": "TOMM5 isoform 2 (UniProt Q8N4H5)", "log2 fold change": "inactive: 0.005"}]}]}
